Source: paper PMC9427754

Target: T1, zebrafish p53-FLAG (zebrafish) (UniProt P79734)
T1 sequence: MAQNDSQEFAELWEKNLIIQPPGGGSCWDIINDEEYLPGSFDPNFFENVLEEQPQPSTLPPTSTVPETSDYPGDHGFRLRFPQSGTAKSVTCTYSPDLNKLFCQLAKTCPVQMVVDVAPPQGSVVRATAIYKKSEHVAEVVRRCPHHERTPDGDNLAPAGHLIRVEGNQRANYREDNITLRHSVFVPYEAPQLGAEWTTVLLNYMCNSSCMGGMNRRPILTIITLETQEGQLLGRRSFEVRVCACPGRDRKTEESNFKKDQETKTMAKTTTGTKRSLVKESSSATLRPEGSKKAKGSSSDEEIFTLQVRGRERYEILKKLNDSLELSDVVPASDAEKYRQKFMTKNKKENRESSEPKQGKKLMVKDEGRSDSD
Assay: co-IP; cells transfected with the indicated plasmids, infected with E. piscicida at MOI 1, collected at 6 hpi, lysed in IP lysis buffer; FLAG-tagged Protein Immunoprecipitation Kit; blots with anti-FLAG and anti-pTurboGFP

For zebrafish CD44a_tv1-GFP, the binding was “binds”.
With zebrafish CD44a_tv2-GFP the binding was “binds”.

No constants are given. Whether binding was seen depends on the method and setting. Binding seen in cells or lysates may run through a third protein. A result given as binding can be weak or reduced; the word gives no strength. Tags and fused reporters may be left off the sequences shown.
